Source: publication PMC7614258
Results are given in words; binding and its absence hold for the method and conditions named. Some results given as binding are weak or reduced against the parent protein; the word gives no strength. For some assays here: Where a sequence is shown, tags or fusion partners need not be part of it.

Columns and labels:
Assay in all cases: Western blot of cell lysates (dimer and monomer bands); lysates of HEK293 cells transiently transfected with WT or variant PRLR, blotted with anti-PRLR; concentrations of PRLR dimers compared
[1] = target: prolactin receptor, wild-type (human) (UniProt P16471)
[2] = target: prolactin receptor Glu145Asp variant (human) (UniProt P16471)
[3] = target: prolactin receptor Glu155Lys variant (human) (UniProt P16471)
[4] = target: prolactin receptor Arg183His variant (human) (UniProt P16471)
[5] = target: prolactin receptor Asp187Glu variant (human) (UniProt P16471)

B1: prolactin receptor, wild-type (receptor, UniProt P16471 25-622)
chain: QLPPGKPEIFKCRSPNKETFTCWWRPGTDGGLPTNYSLTYHREGETLMHECPDYITGGPNSCHFGKQYTSMWRTYIMMVNATNQMGSSFSDELYVDVTYIVQPDPPLELAVEVKQPEDRKPYLWIKWSPPTLIDLKTGWFTLLYEIRLKPEKAAEWEIHFAGQQTEFKILSLHPGQKYLVQVRCKPDHGYWSAWSPATFIQIPSDFTMNDTTVWISVAVLSAVICLIIVWAVALKGYSMVTCIFPPVPGPKIKGFDAHLLEKGKSEELLSALGCQDFPPTSDYEDLLVEYLEVDDSEDQHLMSVHSKEHPSQGMKPTYLDPDTDSGRGSCDSPSLLSEKCEEPQANPSTFYDPEVIEKPENPETTHTWDPQCISMEGKIPYFHAGGSKCSTWPLPQPSQHNPRSSYHNITDVCELAVGPAGAPATLLNEAGKDALKSSQTIKSREEGKATQQREVESFHSETDQDTPWLLPQEKTPFGSAKPLDYVEIHKVNKDGALSLLPKQRENSGKPKKPGTPENNKEYAKVSGVMDNNILVLVPDPHAKNVACFEESAKEAPPSLEQNQAEKALANFTATSSKCRLQLGGLDYLDPACFTHSFH
In the case of B1, the binding [1] is reported as “binds”.

B2: prolactin receptor Glu145Asp variant (receptor, UniProt P16471 25-622)
chain: QLPPGKPEIFKCRSPNKETFTCWWRPGTDGGLPTNYSLTYHREGETLMHECPDYITGGPNSCHFGKQYTSMWRTYIMMVNATNQMGSSFSDELYVDVTYIVQPDPPLELAVEVKQPEDRKPYLWIKWSPPTLIDLKTGWFTLLYDIRLKPEKAAEWEIHFAGQQTEFKILSLHPGQKYLVQVRCKPDHGYWSAWSPATFIQIPSDFTMNDTTVWISVAVLSAVICLIIVWAVALKGYSMVTCIFPPVPGPKIKGFDAHLLEKGKSEELLSALGCQDFPPTSDYEDLLVEYLEVDDSEDQHLMSVHSKEHPSQGMKPTYLDPDTDSGRGSCDSPSLLSEKCEEPQANPSTFYDPEVIEKPENPETTHTWDPQCISMEGKIPYFHAGGSKCSTWPLPQPSQHNPRSSYHNITDVCELAVGPAGAPATLLNEAGKDALKSSQTIKSREEGKATQQREVESFHSETDQDTPWLLPQEKTPFGSAKPLDYVEIHKVNKDGALSLLPKQRENSGKPKKPGTPENNKEYAKVSGVMDNNILVLVPDPHAKNVACFEESAKEAPPSLEQNQAEKALANFTATSSKCRLQLGGLDYLDPACFTHSFH
For B2, the binding [2] was “binds”.

B3: prolactin receptor Glu155Lys variant (receptor, UniProt P16471 25-622)
chain: QLPPGKPEIFKCRSPNKETFTCWWRPGTDGGLPTNYSLTYHREGETLMHECPDYITGGPNSCHFGKQYTSMWRTYIMMVNATNQMGSSFSDELYVDVTYIVQPDPPLELAVEVKQPEDRKPYLWIKWSPPTLIDLKTGWFTLLYEIRLKPEKAAKWEIHFAGQQTEFKILSLHPGQKYLVQVRCKPDHGYWSAWSPATFIQIPSDFTMNDTTVWISVAVLSAVICLIIVWAVALKGYSMVTCIFPPVPGPKIKGFDAHLLEKGKSEELLSALGCQDFPPTSDYEDLLVEYLEVDDSEDQHLMSVHSKEHPSQGMKPTYLDPDTDSGRGSCDSPSLLSEKCEEPQANPSTFYDPEVIEKPENPETTHTWDPQCISMEGKIPYFHAGGSKCSTWPLPQPSQHNPRSSYHNITDVCELAVGPAGAPATLLNEAGKDALKSSQTIKSREEGKATQQREVESFHSETDQDTPWLLPQEKTPFGSAKPLDYVEIHKVNKDGALSLLPKQRENSGKPKKPGTPENNKEYAKVSGVMDNNILVLVPDPHAKNVACFEESAKEAPPSLEQNQAEKALANFTATSSKCRLQLGGLDYLDPACFTHSFH
In the case of B3, the binding [3] is reported as “binds”.

B4: prolactin receptor Arg183His variant (receptor, UniProt P16471 25-622)
chain: QLPPGKPEIFKCRSPNKETFTCWWRPGTDGGLPTNYSLTYHREGETLMHECPDYITGGPNSCHFGKQYTSMWRTYIMMVNATNQMGSSFSDELYVDVTYIVQPDPPLELAVEVKQPEDRKPYLWIKWSPPTLIDLKTGWFTLLYEIRLKPEKAAEWEIHFAGQQTEFKILSLHPGQKYLVQVHCKPDHGYWSAWSPATFIQIPSDFTMNDTTVWISVAVLSAVICLIIVWAVALKGYSMVTCIFPPVPGPKIKGFDAHLLEKGKSEELLSALGCQDFPPTSDYEDLLVEYLEVDDSEDQHLMSVHSKEHPSQGMKPTYLDPDTDSGRGSCDSPSLLSEKCEEPQANPSTFYDPEVIEKPENPETTHTWDPQCISMEGKIPYFHAGGSKCSTWPLPQPSQHNPRSSYHNITDVCELAVGPAGAPATLLNEAGKDALKSSQTIKSREEGKATQQREVESFHSETDQDTPWLLPQEKTPFGSAKPLDYVEIHKVNKDGALSLLPKQRENSGKPKKPGTPENNKEYAKVSGVMDNNILVLVPDPHAKNVACFEESAKEAPPSLEQNQAEKALANFTATSSKCRLQLGGLDYLDPACFTHSFH
With B4 the binding [4] was “binds”.

B5: prolactin receptor Asp187Glu variant (receptor, UniProt P16471 25-622)
chain: QLPPGKPEIFKCRSPNKETFTCWWRPGTDGGLPTNYSLTYHREGETLMHECPDYITGGPNSCHFGKQYTSMWRTYIMMVNATNQMGSSFSDELYVDVTYIVQPDPPLELAVEVKQPEDRKPYLWIKWSPPTLIDLKTGWFTLLYEIRLKPEKAAEWEIHFAGQQTEFKILSLHPGQKYLVQVRCKPEHGYWSAWSPATFIQIPSDFTMNDTTVWISVAVLSAVICLIIVWAVALKGYSMVTCIFPPVPGPKIKGFDAHLLEKGKSEELLSALGCQDFPPTSDYEDLLVEYLEVDDSEDQHLMSVHSKEHPSQGMKPTYLDPDTDSGRGSCDSPSLLSEKCEEPQANPSTFYDPEVIEKPENPETTHTWDPQCISMEGKIPYFHAGGSKCSTWPLPQPSQHNPRSSYHNITDVCELAVGPAGAPATLLNEAGKDALKSSQTIKSREEGKATQQREVESFHSETDQDTPWLLPQEKTPFGSAKPLDYVEIHKVNKDGALSLLPKQRENSGKPKKPGTPENNKEYAKVSGVMDNNILVLVPDPHAKNVACFEESAKEAPPSLEQNQAEKALANFTATSSKCRLQLGGLDYLDPACFTHSFH
In the case of B5, the binding [5] is reported as “binds”.
